The source of these data is article PMC5104321.

By UniProt entry, the sequences of proteins in these tests, tags left out.
UniProt P62745: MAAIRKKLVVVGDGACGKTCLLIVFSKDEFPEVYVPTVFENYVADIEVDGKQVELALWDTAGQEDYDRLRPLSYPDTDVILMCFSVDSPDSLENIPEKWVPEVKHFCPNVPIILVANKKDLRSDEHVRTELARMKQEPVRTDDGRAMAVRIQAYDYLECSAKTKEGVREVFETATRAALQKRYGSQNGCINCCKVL
UniProt P84095: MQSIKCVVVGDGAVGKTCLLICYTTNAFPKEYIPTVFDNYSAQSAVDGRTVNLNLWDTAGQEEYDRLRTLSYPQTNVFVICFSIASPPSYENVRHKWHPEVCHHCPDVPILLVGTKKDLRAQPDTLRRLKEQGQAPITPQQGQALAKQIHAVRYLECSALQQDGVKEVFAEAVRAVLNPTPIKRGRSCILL

Results are given in words; binding and its absence hold for the method and conditions named. Binding seen in cells or lysates may run through a third protein. Some entries that bind do so weakly or less than the wild type.

Test [1] addresses T1, RhoGDI3 (human (endogenous in hTERT-HPNE, BxPC3 and PANC-1)) (UniProt Q99819).
T1 sequence: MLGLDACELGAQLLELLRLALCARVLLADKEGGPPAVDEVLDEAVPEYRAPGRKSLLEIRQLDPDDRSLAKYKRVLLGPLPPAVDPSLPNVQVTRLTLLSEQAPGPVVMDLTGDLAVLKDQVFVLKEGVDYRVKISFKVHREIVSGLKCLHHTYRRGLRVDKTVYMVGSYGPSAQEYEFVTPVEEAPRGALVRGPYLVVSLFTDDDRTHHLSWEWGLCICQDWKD
The test is described as follows: co-IP; lysates of hTERT-HPNE, BxPC3 and PANC-1 immunoprecipitated with anti-RhoGDI3 on protein G, blotted with anti-RhoG; unrelated antibody as control; lysis buffer 50 mM Tris pH 6.8, NaCl 2M, Triton X-100 1%.

For test [2], the target named is RhoB GTPase (human (endogenous in hTERT-HPNE, BxPC3 and PANC-1)) (UniProt P62745). The test is described as follows: co-IP; lysate of hTERT-HPNE immunoprecipitated with anti-RhoB on protein G, blotted with anti-RhoGDI3; unrelated antibody as control; lysis buffer 50 mM Tris pH 6.8, NaCl 2M, Triton X-100 1%.

As for RhoG GTPase (from UniProt P84095 1-191), the binding result in test [1] is recorded as “binds”.

B1: RhoGDI3 (protein, UniProt Q99819 1-225)
chain: T1 sequence
As for B1, the binding result in test [2] was “binds”.
